# In the supplement of paper PMC11348887:
# Structures can show the parent of a compound that is named as a salt. The list shows a part of the results. Most values lie at the level of the controls, where differences are scatter.
# Key:
# Conditions in all cases: 5 µM; treatment: days 7-14 after plating, readout day 21
# [1] = tested on: hPSC-derived cortical neurons (WA09); experiment: nucleus area z-score vs screen plate; higher = larger nuclei (more mature)
# [2] = tested on: hPSC-derived cortical neurons (WA09); experiment: total neurite length per nucleus (MAP2) z-score; higher = more neurite growth
# [3] = tested on: hPSC-derived cortical neurons (WA09); experiment: nucleus roundness z-score vs screen plate; higher = rounder nuclei (more mature)
# [4] = tested on: hPSC-derived cortical neurons (WA09); experiment: KCl-induced FOS+/EGR-1+ double-positive nuclei fraction z-score (KCl minus unstimulated); higher = stronger activity-induced IEG response
Structure (SMILES),nucleus area z-score [1],total neurite length per nucleus (z-score) [2],nucleus roundness z-score [3],KCl-induced FOS+/EGR-1+ double-positive nuclei fraction z-score [4]
COc1ccc(-c2cnc3c(-c4cccc5ncccc45)cnn3c2)cc1,0.452,2.74,-0.284,0.495
CCC(CC)(NC(=O)C(C)C)C(=O)N[C@@H](CCCN=C(N)N)C(=O)NC1(C(=O)NC(c2ccc(F)cc2)c2ccc(F)cc2)CCCC1,-0.669,-0.84,-0.585,0.372
CCn1c(=O)c(-c2ccc(-c3cncs3)cc2Cl)cc2cnc(Nc3ccc(N4CCN(C)CC4)cc3)nc21,-1.37,-0.678,-1.07,-2.25
O=C(O)c1cc(-c2ccccc2)nc2ccccc12 [Cinchophen],1.01,1.45,1.02,-0.23
Cc1ccccc1C(OCCN(C)C)c1ccccc1 (stereo not given) [Orphenadrine Citrate],-0.243,-0.63,-0.371,-0.715
O=C(O)C1=C[C@@H](O)[C@@H](O)[C@H](O)C1 [Shikimic Acid],0.51,0.472,-0.384,-0.159
N=C(N)NCCC[C@H](N)C(=O)O [L-Arginine HCl (L-Arg)],0.0676,-0.171,0.341,0.752
O=C(/C=C\n1cnc(-c2cc(C(F)(F)F)cc(C(F)(F)F)c2)n1)N1CC(F)(F)C1,-5.52,-1.81,-5.81,7.38
OC[C@@H](O)[C@H](O)[C@@H](O)CO [Xylitol],0.703,-0.0854,0.496,-1.01
CNCc1ccc(-c2[nH]c3cc(F)cc4c3c2CCNC4=O)cc1,1.56,-0.252,-0.353,0.828
